{
  "source": "PubChem BioAssay AID1347076",
  "about": "(National Center for Advancing Translational Sciences (NCATS), 2019)",
  "note": "In all, about 400,000 compounds went through this assay and about 13,000 (3.2%) were called active. This list was built around the results that the source calls inconclusive (neither active nor inactive); the mix of calls is not that of the screen. Calls follow the shape of the dose curve; as a rule, active = well fitted cell-killing curve with a large enough effect; inconclusive = small, poorly fitted or top-dose-only effect, or effect the other way; inactive = flat fitted curve, though single readings scatter. A potency beside an inconclusive call is a rough fit, not a confirmed value. % is scaled to controls: 0 for no effect and ±100 for the full control effect; potency is read from the fitted curve at half-maximal effect.",
  "data": [
    {"assay": "qHTS assay for MDR1-selective chemotherapeutics: Primary screen using the drug-selected MDR subline cells KB-V1; also: nearly all actives have a fitted effect of over 60% in size", "details": "KB-V1 MDR cells viability, CellTiter-Glo, 72 h; activity change, negative = cytotoxicity: at 46.1 µM (top of the series)", "how_it_was_run": "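Following 72 h at 37 degrees C with compound, KB-V1 cell viability was read by CellTiter-Glo luminescence, medium being phenol-red-free DMEM plus 10% FBS; concentration-response parameters came from normalized, curve-fitted qHTS data.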", "values": [
      {"smiles": "C/C(CCC(C)C)=N\\Nc1cc(C)c2ccccc2n1", "Potency": "inconclusive: 29.1 µM [cytotoxic, single point]"},
      {"smiles": "Cc1cc(NC(=O)c2noc3c2CCc2ccccc2-3)n(-c2ccccc2)n1", "Potency": "inconclusive: 20.6 µM [rising, single point]"},
      {"smiles": "CCCCCn1c(SCC(=O)OCC)nc2cc(C(=O)N3CCC(C(N)=O)CC3)ccc2c1=O", "activity change, negative = cytotoxicity": "inactive: -9.3%"},
      {"smiles": "CCOC(=O)c1c(C)[n+]([O-])c2ccc3c(non3O)c12", "Potency": "inconclusive: 25.9 µM [rising, single point]"},
      {"smiles": "Cc1ccc2sc(NC(=O)CN3C(=O)c4ccccc4C3=O)nc2c1C", "Potency": "inconclusive: 3.66 µM [rising, partial curve, poor fit]"},
      {"smiles": "CCCC/C=C1/CCC(CN(C)C)C1=O", "note": "(stereo unspecified)", "Potency": "inconclusive: 23.1 µM [cytotoxic, single point]"},
      {"smiles": "CCC1(c2ccc(F)cc2)NC(=O)N(CC(=O)Nc2ccc(-c3nc4ccc(C)cc4s3)cc2)C1=O", "note": "(stereo unspecified)", "activity change, negative = cytotoxicity": "inactive: 0.0316%"},
      {"smiles": "N#CC(C#N)=C(Nc1ccc(F)cc1)SCc1cccc(Br)c1", "Potency": "active: 9.2 µM"},
      {"smiles": "O=C(O)c1ccccc1C(=O)NNc1ccc(F)cc1", "activity change, negative = cytotoxicity": "inactive: 14.6%"},
      {"smiles": "CCCCNc1c(-c2ccc(OC)c(Sc3ccc(OC)cc3)c2)nc2cnccn12", "Potency": "inconclusive: 18.4 µM [cytotoxic, single point]"},
      {"smiles": "COC(=O)CSc1nc2c(c(=O)n(C)c(=O)n2C)n1CCCc1ccccc1", "Potency": "inconclusive: 18.4 µM [cytotoxic, single point]"},
      {"smiles": "O=C1SCCN1N=Cc1ccc([N+](=O)[O-])o1", "Potency": "inconclusive: 32.6 µM [cytotoxic, single point]"},
      {"smiles": "COc1ccc(C2c3c(-c4ccccc4)n[nH]c3C(=O)N2c2ccc(C(=O)O)cc2)cc1", "note": "(stereo unspecified)", "activity change, negative = cytotoxicity": "inactive: 1.49%"},
      {"smiles": "COc1ccc(N2CC(C(=O)OC(C)C(=O)c3ccccc3)CC2=O)cc1", "note": "(stereo unspecified)", "Potency": "inconclusive: 16.4 µM [rising, single point]"},
      {"smiles": "O=[N+]([O-])c1ccc(S(=O)Cc2ccccc2)c([N+](=O)[O-])c1", "note": "(stereo unspecified)", "Potency": "inconclusive: 8.2 µM [cytotoxic, partial curve]"},
      {"smiles": "O=c1oc2ccccc2cc1-c1cn2cc(Cc3cc(Cl)ccc3Cl)sc2n1", "activity change, negative = cytotoxicity": "inconclusive: 2.29%"},
      {"smiles": "Cc1ccc(CN(C(=O)COc2ccccc2[N+](=O)[O-])c2ccccn2)o1", "activity change, negative = cytotoxicity": "inactive: -6%"},
      {"smiles": "CCOC(=O)C1=C(CSc2nc3ccccc3s2)NC(=O)NC1c1ccc(OC)cc1", "note": "(stereo unspecified)", "Potency": "active: 16.4 µM"},
      {"smiles": "CC(C)Cc1ccc(C(=O)Nc2ccc(Cc3ccncc3)cc2)o1", "activity change, negative = cytotoxicity": "inactive: -9.57%"},
      {"smiles": "CCOC(=O)C1=CC[C@@H](c2ccc(F)cc2)N(S(=O)(=O)c2ccc(C)cc2)[C@H]1c1ccccc1", "Potency": "inconclusive: 29.1 µM [cytotoxic, single point]"},
      {"smiles": "COCCNC(=O)C1(C)CCCN(C(=O)c2cccc(C#N)c2)C1", "note": "(stereo unspecified)", "activity change, negative = cytotoxicity": "inactive: 8.3%"},
      {"smiles": "CN(c1ccccc1)S(=O)(=O)c1cccc(NC(=O)C2=NNC(=O)CC2)c1", "activity change, negative = cytotoxicity": "inactive: -8.44%"},
      {"smiles": "O=C(c1ccccc1Br)N1N=C(c2ccccc2)CC1c1ccccc1F", "note": "(stereo unspecified)", "Potency": "inconclusive: 29.1 µM [cytotoxic, single point]"},
      {"smiles": "COc1cccc(/C=N/NC(=O)C(C)Cn2cnc3ccccc32)c1", "note": "(stereo unspecified)", "activity change, negative = cytotoxicity": "inactive: -5.73%"},
      {"smiles": "O=C(Cc1ccccc1F)Nc1ccc2c(c1)CCC2", "Potency": "inconclusive: 2.31 µM [rising, partial curve]"},
      {"smiles": "O=C(COC(=O)CNC(=O)c1ccccc1Cl)Nc1cc(C(F)(F)F)ccc1Cl", "activity change, negative = cytotoxicity": "inactive: -28.2%"},
      {"smiles": "CC(=NNC(=S)Nc1ccccc1Cl)c1ccccn1", "Potency": "inconclusive: 0.0082 µM [cytotoxic, full curve, poor fit]"},
      {"smiles": "Cc1nnc(SCC(=O)N2CCC(c3noc4ccc(F)cc34)CC2)s1", "Potency": "inconclusive: 14.6 µM [cytotoxic, single point]"},
      {"smiles": "O=C(c1cccc(C(F)(F)F)c1)N1CCC2(CC1)NCCc1[nH]cnc12", "Potency": "inconclusive: 20.6 µM [rising, single point]"},
      {"smiles": "COCCNC(=O)C(=O)N/N=C/c1ccccc1C(F)(F)F", "activity change, negative = cytotoxicity": "inactive: 16.7%"},
      {"smiles": "Cc1ccccc1OCC(=O)Nc1ccccc1C(=O)N1CCCCC1", "Potency": "inconclusive: 9.2 µM [cytotoxic, partial curve]"},
      {"smiles": "COc1cc(Br)c(CC2c3cc(OC)c(OC)cc3CCN2C)cc1OC", "note": "(stereo unspecified)", "Potency": "active: 20.6 µM"},
      {"smiles": "CCn1c(COc2ccccc2C)nnc1SCC(=O)OC", "activity change, negative = cytotoxicity": "inactive: 2.45%"},
      {"smiles": "C=CCOn1c(C)c(C(C)=O)c2c3nonc3ccc21", "Potency": "inconclusive: 9.2 µM [cytotoxic, partial curve, poor fit]"},
      {"smiles": "CC(C)C[C@@H](CN1CCC[C@@H]1CN1C(=S)NC[C@@H]1Cc1ccc(O)cc1)N1C[C@H](Cc2ccc(O)cc2)N(CCc2ccccc2)C1=S", "Potency": "inconclusive: 25.9 µM [cytotoxic, single point]"},
      {"smiles": "FC(F)(F)c1cc(Cl)c2nc(-c3ccccc3)c(Cc3cccc(Cl)c3)n2c1", "Potency": "inconclusive: 0.461 µM [cytotoxic, full curve, poor fit]"},
      {"smiles": "CCOc1cccc2sc(N(CCCN(C)C)C(=O)c3ccc(S(=O)(=O)N(CC)Cc4ccccc4)cc3)nc12", "Potency": "active: 10.3 µM"},
      {"smiles": "CN(C)c1cccc(NC(=O)C2Cc3c(-c4ccccc4Oc4ccccc4)ccnc3O2)c1", "note": "(stereo unspecified)", "Potency": "inconclusive: 20.6 µM [cytotoxic, single point]"},
      {"smiles": "Nn1c(SCC(=O)Nc2ccccc2)nnc(Cc2ccccc2)c1=O", "Potency": "inconclusive: 0.82 µM [rising, full curve]"},
      {"smiles": "CCCCn1c(-c2ccccc2)nc2c(=O)n(C)c(=O)[nH]c21", "Potency": "inconclusive: 18.4 µM [rising, single point]"},
      {"smiles": "CCC(=O)N1CCc2cc(S(=O)(=O)CCC(=O)N3CCN(c4cccc(C)c4C)CC3)ccc21", "Potency": "inconclusive: 29.1 µM [rising, single point]"},
      {"smiles": "CCOC(=O)c1cccc(NC(=O)CCS(=O)(=O)c2ccc3c(c2)CCN3C(=O)CC)c1", "activity change, negative = cytotoxicity": "inactive: 3.46%"},
      {"smiles": "COc1ccc(N2CCN(Cc3nc4c(c(=O)[nH]c(=O)n4C)n3CCCc3ccccc3)CC2)cc1", "Potency": "inconclusive: 32.6 µM [cytotoxic, partial curve, poor fit]"},
      {"smiles": "NC1=NC(=Nc2ccccc2)c2ccccc21", "activity change, negative = cytotoxicity": "inactive: 1.7%"},
      {"smiles": "O=C(NCc1ccccc1)c1noc2c1CCCCC2", "Potency": "active: 20.6 µM"},
      {"smiles": "CCOC(=O)CNC(=S)N(Cc1cccs1)C1CCCCC1", "Potency": "active: 7.31 µM"}
    ]}
  ]
}
